# The other results are listed elsewhere or left out.
# How the values were obtained:
# Test in all cases: glycan array binding signal (z-score within array); higher = stronger binding
# Conditions in all cases: glycan notation: IUPAC condensed, linker removed
# [1] = target: GalNAc(b1-4)GlcNAc
# In short: (§1)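 Negative Z-scores can be read as non-binding. The Z-score is calculated within each array and then averaged across arrays of one protein sequence at different concentrations or buffers and across linkers. Arrays, 3228 in all, were curated from the Consortium for Functional Glycomics database and kept only where the protein sequence was available.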
# [2] = target: GalNAc(b1-4)GlcNAc(b1-2)Man
# In short: as §1
# [3] = target: GalNAc(b1-4)GlcNAc(b1-2)Man(a1-3)[GalNAc(b1-4)GlcNAc(b1-2)Man(a1-6)]Man(b1-4)GlcNAc(b1-4)GlcNAc
# In short: as §1
# [4] = target: GalNAc(b1-4)GlcNAc(b1-3)GalNAc(b1-4)GlcNAc
# In short: as §1
# [5] = target: GalNAc(b1-4)GlcNAc6S
# In short: as §1
# [6] = target: GalNAc(b1-6)GalNAc
# In short: as §1
# [7] = target: GalNAc3S(b1-4)GlcNAc
# In short: as §1
# [8] = target: GalNAc3S(b1-4)GlcNAc3S
# In short: as §1
# [9] = target: GalNAc3S(b1-4)[Fuc(a1-3)]GlcNAc
# In short: as §1
# [10] = target: GalNAc4S6S(b1-4)GlcNAc
# In short: as §1
# [11] = target: GalNAc6S(b1-4)GlcNAc
# In short: as §1
# [12] = target: Glc(a1-4)Glc
# In short: as §1
# [13] = target: Glc(a1-4)Glc(a1-4)Glc(a1-4)Glc
# In short: as §1
# [14] = target: Glc(a1-6)Glc(a1-6)Glc
# In short: as §1
# [15] = target: Glc(a1-6)Glc(a1-6)Glc(a1-6)Glc
# In short: as §1
# [16] = target: Glc(b1-4)Glc
# In short: as §1
# [17] = target: Glc(b1-6)Glc
# In short: as §1
# [18] = target: GlcA(b1-3)Gal
# In short: as §1
# [19] = target: GlcA(b1-3)GlcNAc
# In short: as §1
# [20] = target: GlcA(b1-6)Gal
# In short: as §1
# [21] = target: GlcA3S(b1-3)Gal(b1-4)GlcNAc(b1-2)Man
# In short: as §1
# [22] = target: GlcA3S(b1-3)Gal(b1-4)GlcNAc(b1-3)Gal(b1-4)Glc
# In short: as §1
# [23] = target: GlcNAc(a1-3)Gal(b1-4)GlcNAc
# In short: as §1
# [24] = target: GlcNAc(a1-4)Gal(b1-3)GlcNAc
# In short: as §1
# [25] = target: GlcNAc(a1-4)Gal(b1-4)GalNAc
# In short: as §1
# [26] = target: GlcNAc(a1-4)Gal(b1-4)GlcNAc
# In short: as §1
# [27] = target: GlcNAc(a1-4)Gal(b1-4)GlcNAc(b1-3)Gal(b1-4)Glc
# In short: as §1
# [28] = target: GlcNAc(a1-4)Gal(b1-4)GlcNAc(b1-3)Gal(b1-4)GlcNAc
# In short: as §1
# [29] = target: GlcNAc(a1-4)Gal(b1-4)GlcNAc(b1-3)Gal(b1-4)GlcNAc(b1-3)Gal(b1-4)GlcNAc
# In short: as §1
# [30] = target: GlcNAc(a1-4)Gal(b1-4)GlcNAc(b1-3)Gal(b1-4)[Fuc(a1-3)]GlcNAc(b1-3)Gal(b1-4)[Fuc(a1-3)]GlcNAc
# In short: as §1
# [31] = target: GlcNAc(a1-6)Gal(b1-4)GlcNAc
# In short: as §1
# [32] = target: GlcNAc(b1-2)Gal(b1-3)GalNAc
# In short: as §1
# [33] = target: GlcNAc(b1-2)Man(a1-3)[GlcNAc(b1-2)Man(a1-6)]Man(b1-4)GlcNAc(b1-4)GlcNAc
# In short: as §1
# [34] = target: GlcNAc(b1-2)Man(a1-3)[GlcNAc(b1-2)Man(a1-6)]Man(b1-4)GlcNAc(b1-4)[Fuc(a1-6)]GlcNAc
# In short: as §1
# [35] = target: GlcNAc(b1-2)Man(a1-3)[GlcNAc(b1-4)][GlcNAc(b1-2)Man(a1-6)]Man(b1-4)GlcNAc(b1-4)GlcNAc
# In short: as §1
# [36] = target: GlcNAc(b1-2)Man(a1-3)[GlcNAc(b1-4)][GlcNAc(b1-2)Man(a1-6)]Man(b1-4)GlcNAc(b1-4)[Fuc(a1-6)]GlcNAc
# In short: as §1
# [37] = target: GlcNAc(b1-2)[GlcNAc(b1-4)]Man(a1-3)[GlcNAc(b1-2)Man(a1-6)]Man(b1-4)GlcNAc(b1-4)GlcNAc
# In short: as §1
# [38] = target: GlcNAc(b1-2)[GlcNAc(b1-4)]Man(a1-3)[GlcNAc(b1-4)][GlcNAc(b1-2)Man(a1-6)]Man(b1-4)GlcNAc(b1-4)GlcNAc
# In short: as §1
# [39] = target: GlcNAc(b1-2)[GlcNAc(b1-4)]Man(a1-3)[GlcNAc(b1-4)][GlcNAc(b1-2)[GlcNAc(b1-6)]Man(a1-6)]Man(b1-4)GlcNAc(b1-4)GlcNAc
# In short: as §1
# [40] = target: GlcNAc(b1-2)[GlcNAc(b1-4)]Man(a1-3)[GlcNAc(b1-4)][GlcNAc(b1-2)[GlcNAc(b1-6)]Man(a1-6)]Man(b1-4)GlcNAc(b1-4)[Fuc(a1-6)]GlcNAc
# In short: as §1
# [41] = target: GlcNAc(b1-2)[GlcNAc(b1-6)]Man(a1-6)[GlcNAc(b1-2)Man(a1-3)]Man(b1-4)GlcNAc(b1-4)GlcNAc
# In short: as §1
# [42] = target: GlcNAc(b1-2)[GlcNAc(b1-6)]Man(a1-6)[GlcNAc(b1-2)Man(a1-3)]Man(b1-4)GlcNAc(b1-4)[Fuc(a1-6)]GlcNAc
# In short: as §1
# [43] = target: GlcNAc(b1-2)[GlcNAc(b1-6)]Man(a1-6)[GlcNAc(b1-4)][GlcNAc(b1-2)Man(a1-3)]Man(b1-4)GlcNAc(b1-4)GlcNAc
# In short: as §1
# [44] = target: GlcNAc(b1-3)Fuc
# In short: as §1
# [45] = target: GlcNAc(b1-3)Gal
# In short: as §1
binder,measurement,setting,value
"AFL6 (Aspergillus fumigatus), Q4WKJ1 (protein) MSFHLTAEDIRIEDGHRLVARLRNADGDLQDASIDLNTCLGNDNGHFQWDGVDFSHSAQDVHFAIEGGGQVPVLRAQLANQDGEFQDADVNLSERIENINGEFVFH",glycan array binding signal (z-score),[1],-0.342
same,glycan array binding signal (z-score),[2],-0.216
same,glycan array binding signal (z-score),[3],0.101
same,glycan array binding signal (z-score),[4],-0.273
same,glycan array binding signal (z-score),[5],-0.206
same,glycan array binding signal (z-score),[6],-0.904
same,glycan array binding signal (z-score),[7],0.248
same,glycan array binding signal (z-score),[8],-0.422
same,glycan array binding signal (z-score),[9],0.033
same,glycan array binding signal (z-score),[10],-0.615
same,glycan array binding signal (z-score),[11],-0.605
same,glycan array binding signal (z-score),[12],-0.518
same,glycan array binding signal (z-score),[13],-0.284
same,glycan array binding signal (z-score),[14],-0.6
same,glycan array binding signal (z-score),[15],-0.415
same,glycan array binding signal (z-score),[16],-0.729
same,glycan array binding signal (z-score),[17],-0.602
same,glycan array binding signal (z-score),[18],0.198
same,glycan array binding signal (z-score),[19],-0.434
same,glycan array binding signal (z-score),[20],0.078
same,glycan array binding signal (z-score),[21],-0.915
same,glycan array binding signal (z-score),[22],0.361
same,glycan array binding signal (z-score),[23],-0.831
same,glycan array binding signal (z-score),[24],0.373
same,glycan array binding signal (z-score),[25],0.058
same,glycan array binding signal (z-score),[26],2.64
same,glycan array binding signal (z-score),[27],2.89
same,glycan array binding signal (z-score),[28],3.58
same,glycan array binding signal (z-score),[29],3.77
same,glycan array binding signal (z-score),[30],1.86
same,glycan array binding signal (z-score),[31],-0.357
same,glycan array binding signal (z-score),[32],-0.464
same,glycan array binding signal (z-score),[33],-0.272
same,glycan array binding signal (z-score),[34],0.105
same,glycan array binding signal (z-score),[35],-0.863
same,glycan array binding signal (z-score),[36],0.117
same,glycan array binding signal (z-score),[37],0.184
same,glycan array binding signal (z-score),[38],-0.157
same,glycan array binding signal (z-score),[39],-0.432
same,glycan array binding signal (z-score),[40],-1.21
same,glycan array binding signal (z-score),[41],-0.169
same,glycan array binding signal (z-score),[42],0.441
same,glycan array binding signal (z-score),[43],-0.56
same,glycan array binding signal (z-score),[44],-0.287
same,glycan array binding signal (z-score),[45],-0.004

# 3 successive entries out of the list so far, quoted:
binder,measurement,setting,value
"AFL6 (Aspergillus fumigatus), Q4WKJ1 (protein) MSFHLTAEDIRIEDGHRLVARLRNADGDLQDASIDLNTCLGNDNGHFQWDGVDFSHSAQDVHFAIEGGGQVPVLRAQLANQDGEFQDADVNLSERIENINGEFVFH",glycan array binding signal (z-score),[32],-0.464
same,glycan array binding signal (z-score),[33],-0.272
same,glycan array binding signal (z-score),[34],0.105
